In paper PMC4513857, “PRC2 regulates RNA polymerase III transcribed non-translated RNA gene transcription through EZH2 and SUZ12 interaction with TFIIIC complex” (Nucleic Acids Research, 2015):
These are yes or no findings as the source states them, for the method shown. Binding seen in cells or lysates may run through a third protein. Some binding calls cover weakened binding; strength is not graded here. Each block holds one molecule with its values, some of them ahead of it.

The chains behind the UniProt entries cited, without tags or fusion partners. Where a name states a change or a piece, a line headed by the entry shows the natural chain unless it says otherwise. Residues count along the entry.
UniProt Q15910: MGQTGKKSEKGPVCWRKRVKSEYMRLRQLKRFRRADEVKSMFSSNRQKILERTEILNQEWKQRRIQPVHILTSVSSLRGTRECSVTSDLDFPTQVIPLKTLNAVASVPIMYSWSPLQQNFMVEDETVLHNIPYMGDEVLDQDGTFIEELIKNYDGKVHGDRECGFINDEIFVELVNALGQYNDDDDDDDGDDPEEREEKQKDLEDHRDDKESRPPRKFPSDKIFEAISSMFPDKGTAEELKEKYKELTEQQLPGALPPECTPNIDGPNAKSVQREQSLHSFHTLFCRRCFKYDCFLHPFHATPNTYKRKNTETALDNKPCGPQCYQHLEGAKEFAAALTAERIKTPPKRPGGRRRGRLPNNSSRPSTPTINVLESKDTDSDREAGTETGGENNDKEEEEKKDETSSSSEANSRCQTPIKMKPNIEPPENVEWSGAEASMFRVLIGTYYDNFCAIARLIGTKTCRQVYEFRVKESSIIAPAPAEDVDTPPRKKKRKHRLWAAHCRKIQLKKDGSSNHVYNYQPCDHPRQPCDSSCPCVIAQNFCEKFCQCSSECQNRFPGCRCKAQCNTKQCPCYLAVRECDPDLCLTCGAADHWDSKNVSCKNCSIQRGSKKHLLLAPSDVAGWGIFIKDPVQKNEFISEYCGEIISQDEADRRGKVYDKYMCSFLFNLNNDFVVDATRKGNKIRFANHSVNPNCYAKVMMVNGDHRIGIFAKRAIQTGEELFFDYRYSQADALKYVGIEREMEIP
GST-EZH2 fragment A, N-terminal region (Domain I + Domain II), aa 1-522: residues 1-522 of Q15910
UniProt Q15022: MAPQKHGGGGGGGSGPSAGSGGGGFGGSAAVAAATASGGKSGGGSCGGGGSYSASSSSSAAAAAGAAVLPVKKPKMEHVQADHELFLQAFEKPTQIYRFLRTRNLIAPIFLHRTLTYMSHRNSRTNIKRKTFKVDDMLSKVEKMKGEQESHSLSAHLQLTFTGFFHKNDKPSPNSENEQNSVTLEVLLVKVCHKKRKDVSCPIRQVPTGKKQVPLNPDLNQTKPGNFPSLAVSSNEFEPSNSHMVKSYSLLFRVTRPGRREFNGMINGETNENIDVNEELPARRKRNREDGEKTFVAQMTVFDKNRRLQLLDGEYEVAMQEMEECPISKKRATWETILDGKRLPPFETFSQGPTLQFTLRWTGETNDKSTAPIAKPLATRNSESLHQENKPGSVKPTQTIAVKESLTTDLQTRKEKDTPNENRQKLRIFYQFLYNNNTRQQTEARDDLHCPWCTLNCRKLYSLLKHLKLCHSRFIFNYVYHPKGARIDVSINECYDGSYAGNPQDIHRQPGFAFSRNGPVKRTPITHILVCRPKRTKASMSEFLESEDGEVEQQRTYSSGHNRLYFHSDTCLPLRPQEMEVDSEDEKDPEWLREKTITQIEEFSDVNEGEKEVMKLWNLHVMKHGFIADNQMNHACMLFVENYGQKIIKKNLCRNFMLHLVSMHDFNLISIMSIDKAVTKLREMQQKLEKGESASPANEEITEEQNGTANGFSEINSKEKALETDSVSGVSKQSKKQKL

Tests used:
[1] = biological target: T1, TFIIIC102, endogenous (human (endogenous in MCF7, SUM159, HeLa)) (UniProt Q9Y5Q9); assay: co-IP; endogenous proteins; MCF7 and SUM159 lysates in NP-40 buffer (50 mM Tris-HCl pH 7.4, 150 mM NaCl, 1% NP-40, 1 mM EDTA), antibody overnight at 4°C, protein A/G-Sepharose, western blot; normal rabbit or mouse IgG as negative controls; EZH2-TFIIIC102 also with DNase
T1 sequence: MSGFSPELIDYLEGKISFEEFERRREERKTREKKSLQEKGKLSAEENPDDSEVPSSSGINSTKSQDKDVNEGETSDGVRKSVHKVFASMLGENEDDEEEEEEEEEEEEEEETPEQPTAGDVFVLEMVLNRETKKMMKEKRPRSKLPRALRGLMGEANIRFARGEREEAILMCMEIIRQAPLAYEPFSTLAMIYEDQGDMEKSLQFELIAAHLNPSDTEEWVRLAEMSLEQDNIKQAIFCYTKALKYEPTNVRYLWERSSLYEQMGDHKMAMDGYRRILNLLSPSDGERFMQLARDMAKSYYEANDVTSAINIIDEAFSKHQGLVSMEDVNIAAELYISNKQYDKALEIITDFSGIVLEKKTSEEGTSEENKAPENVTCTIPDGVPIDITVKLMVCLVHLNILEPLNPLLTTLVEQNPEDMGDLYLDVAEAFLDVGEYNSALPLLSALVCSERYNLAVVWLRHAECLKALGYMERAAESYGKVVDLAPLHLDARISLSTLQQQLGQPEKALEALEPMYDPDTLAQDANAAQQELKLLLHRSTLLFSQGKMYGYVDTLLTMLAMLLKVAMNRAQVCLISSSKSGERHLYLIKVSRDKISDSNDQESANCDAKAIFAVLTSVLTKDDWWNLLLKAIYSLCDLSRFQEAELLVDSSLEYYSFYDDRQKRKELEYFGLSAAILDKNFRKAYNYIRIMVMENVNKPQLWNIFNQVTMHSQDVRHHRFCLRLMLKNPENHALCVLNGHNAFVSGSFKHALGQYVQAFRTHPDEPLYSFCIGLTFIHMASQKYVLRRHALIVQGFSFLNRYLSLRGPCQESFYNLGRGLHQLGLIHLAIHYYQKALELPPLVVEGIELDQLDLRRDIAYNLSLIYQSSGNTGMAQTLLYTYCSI

[2] = biological target: T2, TFIIIC110, endogenous (human (endogenous in MCF7, SUM159, HeLa)) (UniProt Q8WUA4); assay: as above
T2 sequence: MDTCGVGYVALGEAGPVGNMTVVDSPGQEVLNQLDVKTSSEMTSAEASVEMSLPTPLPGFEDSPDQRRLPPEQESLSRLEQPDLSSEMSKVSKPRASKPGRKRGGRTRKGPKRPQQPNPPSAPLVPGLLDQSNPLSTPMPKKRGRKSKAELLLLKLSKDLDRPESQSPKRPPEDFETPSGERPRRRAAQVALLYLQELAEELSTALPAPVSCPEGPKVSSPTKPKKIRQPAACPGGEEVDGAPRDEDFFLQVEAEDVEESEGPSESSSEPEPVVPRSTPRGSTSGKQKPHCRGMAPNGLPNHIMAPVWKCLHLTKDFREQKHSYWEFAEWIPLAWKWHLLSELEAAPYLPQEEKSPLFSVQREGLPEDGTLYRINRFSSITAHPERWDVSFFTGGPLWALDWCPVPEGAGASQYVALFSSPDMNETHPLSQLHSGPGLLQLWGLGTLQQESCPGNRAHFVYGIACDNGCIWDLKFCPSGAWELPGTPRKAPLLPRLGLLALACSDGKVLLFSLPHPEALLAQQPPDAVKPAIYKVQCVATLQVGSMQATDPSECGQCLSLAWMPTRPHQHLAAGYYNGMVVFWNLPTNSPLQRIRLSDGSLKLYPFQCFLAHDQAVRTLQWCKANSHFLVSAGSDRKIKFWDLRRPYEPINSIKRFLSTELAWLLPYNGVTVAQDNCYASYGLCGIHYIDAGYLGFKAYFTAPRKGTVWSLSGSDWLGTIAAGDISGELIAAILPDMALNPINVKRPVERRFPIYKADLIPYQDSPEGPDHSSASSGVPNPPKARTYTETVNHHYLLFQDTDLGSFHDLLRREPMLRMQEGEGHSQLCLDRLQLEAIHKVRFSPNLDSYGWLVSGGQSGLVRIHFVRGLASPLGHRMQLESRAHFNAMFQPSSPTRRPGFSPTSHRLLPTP

[3] = biological target: GST-EZH2 fragment A, N-terminal region (Domain I + Domain II), aa 1-522 (UniProt Q15910); assay: pull-down; purified GST fusion proteins on Glutathione Sepharose 4B beads mixed with HeLa cell lysates (cells transfected with Flag-TFIIIC102 or Flag-EZH2), 4°C overnight, washed 4x with NP-40 buffer, western blot; only the target purified
[4] = biological target: GST-SUZ12 (UniProt Q15022); assay: as above
[5] = biological target: EZH2 (Enhancer of Zeste Homolog 2), endogenous (human (endogenous in MCF7, SUM159)) (UniProt Q15910); assay: co-IP; endogenous proteins; MCF7 and SUM159 lysates in NP-40 buffer (50 mM Tris-HCl pH 7.4, 150 mM NaCl, 1% NP-40, 1 mM EDTA), antibody overnight at 4°C, protein A/G-Sepharose, western blot; normal rabbit or mouse IgG as negative controls; EZH2-TFIIIC102 also with DNase
[6] = biological target: SUZ12, endogenous (human (endogenous in MCF7, SUM159)) (UniProt Q15022); assay: as above

- binding [1]: binds
- binding [2]: binds
Molecule: SUZ12, endogenous (from UniProt Q15022 1-739)

- binding [3]: binds
- binding [4]: binds
- binding [5]: binds
- binding [6]: binds
B1: TFIIIC63, endogenous (protein, UniProt Q9Y5Q8 1-519)
chain: MAAEAADLGLGAAVPVELRRERRMVCVEYPGVVRDVAKMLPTLGGEEGVSRIYADPTKRLELYFRPKDPYCHPVCANRFSTSSLLLRIRKRTRRQKGVLGTEAHSEVTFDMEILGIISTIYKFQGMSDFQYLAVHTEAGGKHTSMYDKVLMLRPEKEAFFHQELPLYIPPPIFSRLDAPVDYFYRPETQHREGYNNPPISGENLIGLSRARRPHNAIFVNFEDEEVPKQPLEAAAQTWRRVCTNPVDRKVEEELRKLFDIRPIWSRNAVKANISVHPDKLKVLLPFIAYYMITGPWRSLWIRFGYDPRKNPDAKIYQVLDFRIRCGMKHGYAPSDLPVKAKRSTYNYSLPITVKKTSSQLVTMHDLKQGLGPSGTSGARKPASSKYKLKDSVYIFREGALPPYRQMFYQLCDLNVEELQKIIHRNDGAENSCTERDGWCLPKTSDELRDTMSLMIRQTIRSKRPALFSSSAKADGGKEQLTYESGEDEEDEEEEEEEEEDFKPSDGSENEMETEILDYV
